The target of the series is T1, MYB28 (AtMYB28) (Arabidopsis thaliana) (UniProt Q9SPG2).
T1 sequence (looked up, limits assumed): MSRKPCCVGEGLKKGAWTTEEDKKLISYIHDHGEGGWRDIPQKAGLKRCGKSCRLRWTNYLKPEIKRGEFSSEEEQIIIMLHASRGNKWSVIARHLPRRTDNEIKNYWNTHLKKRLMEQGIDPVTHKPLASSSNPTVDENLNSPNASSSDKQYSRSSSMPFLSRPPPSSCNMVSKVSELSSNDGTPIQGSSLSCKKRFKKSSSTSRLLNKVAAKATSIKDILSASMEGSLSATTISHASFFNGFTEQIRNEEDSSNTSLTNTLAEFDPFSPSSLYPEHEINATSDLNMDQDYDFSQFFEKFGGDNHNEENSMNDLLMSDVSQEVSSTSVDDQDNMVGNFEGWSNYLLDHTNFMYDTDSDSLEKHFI
Description: EMSA. The conditions noted are these: Odyssey Infrared EMSA kit (LI-COR), 6% DNA retardation gel, TBE, run at 4 °C; probes annealed in TE; protein extracted in 20 mM sodium phosphate pH 7.4, 0.5 M NaCl; protein in a lysate after overexpression; protein details: C-terminal GST (pDEST24); label: 5' DY-682 on forward strand. (A gel shift assay detects complexes by their altered migration in electrophoresis.)

For at least one entry, the source does not settle the construct or the ends of the probe. Where cells or extracts were used, other partners may take part. Protein sequences can lack the tags named with them.

Results on one sequence are retold here after PMC8644457.

Regarding “TGAGTTTCGAACACCTAATCGCGACAACAACCTTATAGCTTCTCTCTCTC (double strand) [SESA4_MYB labeled probe (At2S4 promoter)]”, the binding result is recorded as “binds”.
